Test results reported in the supplement of paper PMC4604168 (melanoma cell lines).
Some of the results follow. Single values are uncertain, as repeats are few or missing.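 The apoptosis fraction was the count of cleaved-PARP antibody-stained nuclei relative to all DNA-stained nuclei, imaged in 1,536-well plates. Screening doses were set so most cells survived, and baseline and induced cleaved-PARP levels vary greatly across cell lines.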

How the values were obtained:
Assay in all cases: cleaved PARP positive nuclei fraction relative to DMSO control; melanoma cells; higher = more apoptosis
Conditions in all cases: library dose: low library concentration; 72 h
[1] = tested on: MZ2-MEL
[2] = tested on: MeWo
[3] = tested on: RPMI7951
[4] = tested on: RVH-421
[5] = tested on: SkMel28
[6] = tested on: SkMel2
[7] = tested on: SkMel30
[8] = tested on: UACC62
[9] = tested on: WM115
[10] = tested on: WM1716
[11] = tested on: WM1745
[12] = tested on: WM3526
[13] = tested on: WM3619
[14] = tested on: WM451Lu

Row | Structure (SMILES) | cleaved PARP positive nuclei fraction [1] | cleaved PARP positive nuclei fraction [2] | cleaved PARP positive nuclei fraction [3] | cleaved PARP positive nuclei fraction [4] | cleaved PARP positive nuclei fraction [5] | cleaved PARP positive nuclei fraction [6] | cleaved PARP positive nuclei fraction [7] | cleaved PARP positive nuclei fraction [8] | cleaved PARP positive nuclei fraction [9] | cleaved PARP positive nuclei fraction [10] | cleaved PARP positive nuclei fraction [11] | cleaved PARP positive nuclei fraction [12] | cleaved PARP positive nuclei fraction [13] | cleaved PARP positive nuclei fraction [14]
1 | Clc1ccc(Nc2nnc(Cc3ccncc3)c3ccccc23)cc1 [vatalanib] + C[As](C)SC[C@H](NC(=O)CC[C@H](N)C(=O)O)C(=O)NCC(=O)O [Darinaparsin] (first compound 2 µM, partner dose 0.4 µM) | 111% | 110% | 44.5% | 180% | 91.1% | 96.5% | 21.3% | 186% | 130% | 142% | 105% | 98% | 129% | 107%
2 | CCCCCCCCc1ccc(CCC(N)(CO)CO)cc1 [fingolimod] + C[As](C)SC[C@H](NC(=O)CC[C@H](N)C(=O)O)C(=O)NCC(=O)O [Darinaparsin] (first compound 2 µM, partner dose 0.4 µM) | 107% | 132% | 118% | 70% | 94.8% | 70.1% | 134% | 129% | 20.1% | 124% | 144% | 96.5% | 170% | 40.5%
3 | N.N.[Cl][Pt][Cl] [cisplatin] + Cn1c(Nc2ccc(C(F)(F)F)cc2)nc2cc(Oc3ccnc(-c4ncc(C(F)(F)F)[nH]4)c3)ccc21 [CHIR265] (first compound 1.6 µM, partner dose 0.08 µM) | 96.2% | 22.4% | 71.4% | 127% | 76% | 18.6% | 56.2% | 96.7% | 77.5% | 148% | 96.6% | 39.1% | 85% | 99%
4 | N.N.[Cl][Pt][Cl] [cisplatin] + O=C(O)[C@@H]1[O][Sb](=[O])([O][Sb]2(=[O])[O][C@H]([C@H](O)CO)[C@H](O)[C@H](C(=O)O)[O]2)[O][C@H]([C@H](O)CO)[C@@H]1O [stibogluconate] (first compound 1.6 µM, partner dose 2 µM) | 40.4% | 135% | 108% | 64.4% | 58.9% | 122% | 34.5% | 150% | 238% | 165% | 111% | 46.8% | 99.4% | 126%
5 | Cn1cc(C2=C(c3cn(C4CCN(Cc5ccccn5)CC4)c4ccccc34)C(=O)NC2=O)c2ccccc21 [Enzastaurin] + O=C(O)c1ccc2c(c1)nc(Nc1cccc(Cl)c1)c1ccncc12 [CX4945] (first compound 0.8 µM, partner dose 0.4 µM) | 60% | 86.2% | 164% | 151% | 70% | 225% | 196% | 125% | 196% | 141% | 96.5% | 38.5% | 92.8% | 53.9%
6 | Cn1cc(C2=C(c3cn(C4CCN(Cc5ccccn5)CC4)c4ccccc34)C(=O)NC2=O)c2ccccc21 [Enzastaurin] + COCC[n+]1c2c(n(Cc3cnccn3)c1C)C(=O)c1ccccc1C2=O [YM155] (first compound 0.8 µM, partner dose 0.0004 µM) | 335% | 73.6% | 156% | 310% | 44.7% | 183% | 37.2% | 48.6% | 56.1% | 40.5% | 93.6% | 281% | 81.7% | 33%
7 | CCN(CC)CCNC(=O)c1c(C)[nH]c(/C=C2\C(=O)Nc3ccc(F)cc32)c1C [sunitinib] + C[As](C)SC[C@H](NC(=O)CC[C@H](N)C(=O)O)C(=O)NCC(=O)O [Darinaparsin] (first compound 0.4 µM, partner dose 0.4 µM) | 69.9% | 183% | 66.3% | 185% | 26.9% | 49.4% | 102% | 63.2% | 88.1% | 26.6% | 100% | 91.6% | 177% | 46.8%
8 | Cn1cc(C2=C(c3cn(C4CCN(Cc5ccccn5)CC4)c4ccccc34)C(=O)NC2=O)c2ccccc21 [Enzastaurin] + Clc1ccc(Nc2nnc(Cc3ccncc3)c3ccccc23)cc1 [vatalanib] (first compound 0.8 µM, partner dose 2 µM) | 135% | 65.2% | 49.3% | 97.4% | 38.3% | 103% | 124% | 83.1% | 17.6% | 85.2% | 88.6% | 38.5% | 87.6% | 268%
9 | Cn1sc(=O)n(Cc2ccccc2)c1=O + C[As](C)SC[C@H](NC(=O)CC[C@H](N)C(=O)O)C(=O)NCC(=O)O [Darinaparsin] (first compound 0.4 µM, partner dose 0.4 µM) | 113% | 69.2% | 46.1% | 49.4% | 34.2% | 86.4% | 31.8% | 99.8% | 103% | 37.9% | 100% | 23.5% | 107% | 93.8%
10 | N.N.[Cl][Pt][Cl] [cisplatin] + Nc1nc(F)nc2c1ncn2[C@@H]1O[C@H](CO)[C@@H](O)[C@@H]1O [fludarabine] (first compound 1.6 µM, partner dose 0.2 µM) | 118% | 473% | 46.1% | 71% | 93.8% | 335% | 573% | 68.4% | 582% | 80.2% | 255% | 1180% | 85.3% | 165%
11 | CNC(=O)c1cc(Oc2ccc(NC(=O)Nc3ccc(Cl)c(C(F)(F)F)c3)cc2)ccn1 [sorafenib] + C[As](C)SC[C@H](NC(=O)CC[C@H](N)C(=O)O)C(=O)NCC(=O)O [Darinaparsin] (first compound 0.4 µM, partner dose 0.4 µM) | 161% | 111% | 103% | 125% | 40.6% | 42% | 41.1% | 169% | 108% | 153% | 97.8% | 20% | 105% | 17.7%
12 | OCc1c[nH]c2ccccc12 [Indole-3-carbinol] + C[As](C)SC[C@H](NC(=O)CC[C@H](N)C(=O)O)C(=O)NCC(=O)O [Darinaparsin] (first compound 0.8 µM, partner dose 0.4 µM) | 62.1% | 85.9% | 112% | 195% | 71.8% | 170% | 92% | 398% | 60.8% | 99.2% | 91.9% | 359% | 90.8% | 45.3%
13 | C[As](C)SC[C@H](NC(=O)CC[C@H](N)C(=O)O)C(=O)NCC(=O)O [Darinaparsin] + C[C@]1(c2nc3c(C(N)=O)cccc3[nH]2)CCCN1 [Veliparib] (first compound 0.4 µM, partner dose 1.4 µM) | 80.3% | 171% | 201% | 141% | 137% | 134% | 184% | 159% | 91.4% | 164% | 93.4% | 22.3% | 86.4% | 46.8%
14 | Cn1cc(C2=C(c3cn(C4CCN(Cc5ccccn5)CC4)c4ccccc34)C(=O)NC2=O)c2ccccc21 [Enzastaurin] + C=CCNC1=C2C[C@@H](C)C[C@H](OC)[C@H](O)[C@@H](C)/C=C(\C)[C@H](OC(N)=O)[C@@H](OC)/C=C\C=C(/C)C(=O)NC(=CC1=O)C2=O [Tanespimycin] (first compound 0.8 µM, partner dose 0.002 µM) | 66.5% | 38.2% | 176% | 96.2% | 46.5% | 64.9% | 110% | 84.5% | 58% | 68.9% | 101% | 35.9% | 119% | 26.6%
15 | CC(=O)c1c(C)c2cnc(Nc3ccc(N4CCNCC4)cn3)nc2n(C2CCCC2)c1=O [palbociclib] + C[As](C)SC[C@H](NC(=O)CC[C@H](N)C(=O)O)C(=O)NCC(=O)O [Darinaparsin] (first compound 0.04 µM, partner dose 0.4 µM) | 127% | 282% | 264% | 184% | 48.1% | 39.9% | 95.2% | 267% | 108% | 164% | 135% | 64.4% | 145% | 52.3%
16 | CC(=O)O[C@@]12CO[C@@H]1C[C@H](O)[C@@]1(C)C(=O)[C@H](O)C3=C(C)[C@@H](OC(=O)[C@H](O)[C@@H](NC(=O)OC(C)(C)C)c4ccccc4)C[C@@](O)([C@@H](OC(=O)c4ccccc4)[C@H]21)C3(C)C [Docetaxel] + N.N.[Cl][Pt][Cl] [cisplatin] (first compound 0.0001 µM, partner dose 1.6 µM) | 503% | 888% | 201% | 143% | 134% | 454% | 363% | 677% | 381% | 227% | 151% | 134% | 110% | 63.9%
17 | O=C(Nc1cc(C(F)(F)F)cc(C(F)(F)F)c1)c1cc(Cl)ccc1O + Cn1cc(C2=C(c3cn(C4CCN(Cc5ccccn5)CC4)c4ccccc34)C(=O)NC2=O)c2ccccc21 [Enzastaurin] (first compound 0.016 µM, partner dose 0.8 µM) | 52.8% | 116% | 55.3% | 48.9% | 127% | 130% | 48.3% | 42.8% | 74.5% | 75.7% | 103% | 62.7% | 85.7% | 48.1%
18 | CC(C)C[C@H](NC(=O)[C@H](Cc1ccccc1)NC(=O)c1cnccn1)B(O)O [Bortezomib] + N.N.[Cl][Pt][Cl] [cisplatin] (first compound 0.001 µM, partner dose 1.6 µM) | 220% | 148% | 134% | 243% | 74% | 67.2% | 102% | 50.8% | 125% | 366% | 120% | 86.8% | 342% | 162%
19 | Cn1cc(C2=C(c3cn(C4CCN(Cc5ccccn5)CC4)c4ccccc34)C(=O)NC2=O)c2ccccc21 [Enzastaurin] + Cc1nc(Nc2ncc(C(=O)Nc3c(C)cccc3Cl)s2)cc(N2CCN(CCO)CC2)n1 [dasatanib] (first compound 0.8 µM, partner dose 0.004 µM) | 83.1% | 59% | 175% | 182% | 90.1% | 248% | 41.5% | 90.1% | 120% | 152% | 135% | 64.6% | 117% | 30.6%

Copied from the list.
In cleaved PARP positive nuclei fraction [11], C[As](C)SC[C@H](NC(=O)CC[C@H](N)C(=O)O)C(=O)NCC(=O)O [Darinaparsin] + C[C@]1(c2nc3c(C(N)=O)cccc3[nH]2)CCCN1 [Veliparib] (first compound 0.4 µM, partner dose 1.4 µM) is listed with 93.4%
In cleaved PARP positive nuclei fraction [2], CCN(CC)CCNC(=O)c1c(C)[nH]c(/C=C2\C(=O)Nc3ccc(F)cc32)c1C [sunitinib] + C[As](C)SC[C@H](NC(=O)CC[C@H](N)C(=O)O)C(=O)NCC(=O)O [Darinaparsin] (first compound 0.4 µM, partner dose 0.4 µM) is listed with 183%
